This passage reports binding results from publication doi:10.1101/2021.08.20.457064.

The chains behind the UniProt entries cited, without tags or fusion partners.
UniProt Q14318: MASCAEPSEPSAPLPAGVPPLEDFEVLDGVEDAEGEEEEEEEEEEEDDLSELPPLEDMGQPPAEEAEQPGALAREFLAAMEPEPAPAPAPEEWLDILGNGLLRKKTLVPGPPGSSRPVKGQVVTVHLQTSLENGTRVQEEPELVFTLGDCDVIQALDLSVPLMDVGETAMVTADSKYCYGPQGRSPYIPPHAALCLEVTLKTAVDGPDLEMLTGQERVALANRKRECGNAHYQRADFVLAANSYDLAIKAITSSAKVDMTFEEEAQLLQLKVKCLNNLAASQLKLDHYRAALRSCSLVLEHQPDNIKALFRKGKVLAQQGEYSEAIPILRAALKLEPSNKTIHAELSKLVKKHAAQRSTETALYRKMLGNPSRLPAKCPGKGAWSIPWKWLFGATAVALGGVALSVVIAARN
UniProt O35465: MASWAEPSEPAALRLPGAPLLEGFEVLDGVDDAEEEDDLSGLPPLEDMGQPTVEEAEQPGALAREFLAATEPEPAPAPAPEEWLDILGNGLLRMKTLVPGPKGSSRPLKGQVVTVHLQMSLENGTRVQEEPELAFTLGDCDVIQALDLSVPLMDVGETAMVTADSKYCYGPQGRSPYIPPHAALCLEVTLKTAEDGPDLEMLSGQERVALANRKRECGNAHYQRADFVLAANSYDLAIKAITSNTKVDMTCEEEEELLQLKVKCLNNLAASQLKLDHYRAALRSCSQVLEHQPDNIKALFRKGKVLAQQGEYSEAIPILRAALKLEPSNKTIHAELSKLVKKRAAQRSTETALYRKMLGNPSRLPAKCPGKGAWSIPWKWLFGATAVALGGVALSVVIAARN

Experiment in all cases: co-IP
Experiment [1] concerns the target T1, GFP-DLK (mouse) (UniProt Q60700).
T1 sequence: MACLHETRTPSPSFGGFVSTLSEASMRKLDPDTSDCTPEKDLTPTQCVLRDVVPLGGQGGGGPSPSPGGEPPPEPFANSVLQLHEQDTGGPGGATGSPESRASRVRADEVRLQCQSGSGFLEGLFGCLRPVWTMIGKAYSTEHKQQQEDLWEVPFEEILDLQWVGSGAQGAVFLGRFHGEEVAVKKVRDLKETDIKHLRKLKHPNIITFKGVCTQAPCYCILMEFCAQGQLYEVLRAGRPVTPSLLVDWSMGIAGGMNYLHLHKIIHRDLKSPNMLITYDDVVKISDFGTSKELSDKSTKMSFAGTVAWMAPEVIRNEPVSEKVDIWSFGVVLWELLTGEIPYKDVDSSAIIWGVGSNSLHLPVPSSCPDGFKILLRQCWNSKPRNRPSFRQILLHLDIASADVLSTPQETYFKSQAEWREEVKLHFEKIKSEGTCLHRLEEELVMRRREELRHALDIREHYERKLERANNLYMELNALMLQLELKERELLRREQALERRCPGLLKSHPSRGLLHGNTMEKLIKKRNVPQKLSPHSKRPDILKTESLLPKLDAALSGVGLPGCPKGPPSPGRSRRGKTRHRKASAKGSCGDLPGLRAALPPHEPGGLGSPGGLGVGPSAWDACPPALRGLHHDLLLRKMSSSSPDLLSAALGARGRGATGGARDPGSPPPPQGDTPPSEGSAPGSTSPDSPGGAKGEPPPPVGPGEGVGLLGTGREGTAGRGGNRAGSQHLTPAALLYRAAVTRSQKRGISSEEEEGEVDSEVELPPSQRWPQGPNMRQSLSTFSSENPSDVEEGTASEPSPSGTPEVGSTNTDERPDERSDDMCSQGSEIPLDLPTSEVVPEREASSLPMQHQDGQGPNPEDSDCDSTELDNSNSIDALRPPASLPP

Experiment [2] deals with T2, DLK K271R mutant (mouse) (UniProt Q60700).
T2 sequence: T1 sequence with K271R

Experiment [3] concerns the target T1, GFP-DLK (mouse). This is another data set of the same source.

Changes are numbered by the printed parent chain. Like-named read-outs stand apart in the source and are kept apart here. No constants are given. Whether binding was seen depends on the method and setting. Binding seen in cells or lysates may run through a third protein. Some results given as binding are weak or reduced against the parent protein; the word gives no strength. For some assays here: Sequences can lack the tags named with a protein.

Take human FKBP8 (from UniProt Q14318 1-412): in experiment [1], the binding result is “binds”. “mouse FKBP8 (Flag-tagged) (from UniProt O35465 1-402)”: the binding result in experiment [2] and in experiment [1] was “binds” each time.

B1: FLAG-FKBPL (protein, UniProt O35450 1-347)
chain: METSPISPMNEKNTAQPQQREENAQQILNTAIPFRQRSPGLLPEALKVGVRPDPANQIVETQEIEHPVAGFEGDSDQFQVSTNEMAEHLQASDLWYCPDGSFVKKIIVPGHGLDKPKLGSKCQVLALGFPFGSGMPEGWTELTIGIGQWREKMWGELMEKCLESMRQGEEAKIHLPGSSAPLAKLRLDSFTNGRDSWEMEAMEKEALAKEEHRRGTELFRAGNPQGAARCYGRALRLLLTLPPPGPPERTTLYANLAACQLLLGHPQLAAQSCDRVLEREPGHLKALYRRGVARAALGDLEKATADFKKVLAVDPKNRAAKEELGKVVIQGRKQDAGLARGLRKMFS
In the case of B1, the binding entry in experiment [3] is reported as “binds”.

B2: human FKBP4 (protein, UniProt Q02790 1-459)
chain: MTAEEMKATESGAQSAPLPMEGVDISPKQDEGVLKVIKREGTGTEMPMIGDRVFVHYTGWLLDGTKFDSSLDRKDKFSFDLGKGEVIKAWDIAIATMKVGEVCHITCKPEYAYGSAGSPPKIPPNATLVFEVELFEFKGEDLTEEEDGGIIRRIQTRGEGYAKPNEGAIVEVALEGYYKDKLFDQRELRFEIGEGENLDLPYGLERAIQRMEKGEHSIVYLKPSYAFGSVGKEKFQIPPNAELKYELHLKSFEKAKESWEMNSEEKLEQSTIVKERGTVYFKEGKYKQALLQYKKIVSWLEYESSFSNEEAQKAQALRLASHLNLAMCHLKLQAFSAAIESCNKALELDSNNEKGLFRRGEAHLAVNDFELARADFQKVLQLYPNNKAAKTQLAVCQQRIRRQLAREKKLYANMFERLAEEENKAKAEASSGDHPTDTEMKEEQKSNTAGSQSQVETEA
As to B2, the binding entry in experiment [3] is recorded as “no binding”.
